This note sets out measurements from publication PMC1334198.

By UniProt entry, the sequences of proteins in these tests, tags left out. Residues count along the entry.
UniProt P98171, residues 746-805: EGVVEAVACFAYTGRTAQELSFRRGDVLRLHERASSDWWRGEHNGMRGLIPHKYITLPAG

This assay deals with GST-tagged RhoGAP4 SH3 (human) (UniProt P98171). Description: pull-down; GST-tagged RhoGAP4 domain incubated with HL-60 lysate, eluted with glutathione, blotted for Hem-1; only the target purified.

No constants are given. Whether binding was seen depends on the method and setting. In cells and extracts the contact can be indirect. Some entries that bind do so weakly or less than the wild type.

B1: hematopoietic protein 1 (Hem-1) (protein, UniProt P55160 1-1127)
chain: MSLTSAYQHKLAEKLTILNDRGQGVLIRMYNIKKTCSDPKSKPPFLLEKSMEPSLKYINKKFPNIDVRNSTQHLGPVHREKAEIIRFLTNYYQSFVDVMEFRDHVYELLNTIDACQCHFDINLNFDFTRSYLDLIVTYTSVILLLSRIEDRRILIGMYNCAHEMLHGHGDPSFARLGQMVLEYDHPLKKLTEEFGPHTKAVSGALLSLHFLFVRRNQGAEQWRSAQLLSLISNPPAMINPANSDTMACEYLSVEVMERWIIIGFLLCHGCLNSNSQCQKLWKLCLQGSLYITLIREDVLQVHKVTEDLFSSLKGYGKRVADIKESKEHVIANSGQFHCQRRQFLRMAVKELETVLADEPGLLGPKALFAFMALSFIRDEVTWLVRHTENVTKTKTPEDYADSSIAELLFLLEGIRSLVRRHIKVIQQYHLQYLARFDALVLSDIIQNLSVCPEEESIIMSSFVSILSSLNLKQVDNGEKFEFSGLRLDWFRLQAYTSVAKAPLHLHENPDLAKVMNLIVFHSRMLDSVEKLLVETSDLSTFCFHLRIFEKMFAMTLEESAMLRYAIAFPLICAHFVHCTHEMCPEEYPHLKNHGLHHCNSFLEELAKQTSNCVLEICAEQRNLSEQLLPKHCATTISKAKNKKTRKQRQTPRKGEPERDKPGAESHRKNRSIVTNMDKLHLNLTELALTMNHVYSFSVFEHTIFPSEYLSSHLEARLNRAIVWLAGYNATTQEIVRPSELLAGVKAYIGFIQSLAQFLGADASRVIRNALLQQTQPLDSCGEQTITTLYTNWYLESLLRQASSGTIILSPAMQAFVSLPREGEQNFSAEEFSDISEMRALAELLGPYGMKFLSENLMWHVTSQIVELKKLVVENMDILVQIRSNFSKPDLMASLLPQLTGAENVLKRMTIIGVILSFRAMAQEGLREVFSSHCPFLMGPIECLKEFVTPDTDIKVTLSIFELASAAGVGCDIDPALVAAIANLKADTSSPEEEYKVACLLLIFLAVSLPLLATDPSSFYSIEKDGYNNNIHCLTKAIIQVSAALFTLYNKNIETHLKEFLVVASVSLLQLGQETDKLKTRNRESISLLMRLVVEESSFLTLDMLESCFPYVLLRNAYREVSRAFHLN
On to B1, for which the binding entry is “binds”.
